# Measured values reported in PubChem BioAssay AID901 (National Center for Advancing Translational Sciences (NCATS), 2007).
# Some of the results follow. These are further read-outs of the screen, such as a control signal, another cell line or another target. No call is given for them. The list favours compounds with an active or inconclusive main result. Potencies come from curve fits of mixed quality, noted in brackets.
# Assay: qHTS Assay for Identifying the Cell-Membrane Permeable IMPase Inhibitors
# Conditions: CHO-M1 cells, IP1 accumulation, HTRF TR-FRET ratio; measured here: donor channel 620 nm AC50
row,Structure (SMILES),AC50
1,CCOC(=O)c1cn(CC)c2ccc(Br)cc2c1=O,"0.00316 µM [rising, full curve, poor fit]"
2,CCOc1ccccc1N1CCN(Cc2ccc(OC)c(OC)c2OC)CC1,"0.1 µM [falling, full curve, poor fit]"
3,COCn1c(-c2ccc(OC)cc2)nc2ccccc21,"12.6 µM [falling, single point]"
4,COc1cc(OC)cc(C(=O)NC2CCN(CC(=O)Nc3cccc4ccccc34)CC2)c1,"3.98 µM [falling, single point]"
5,Cc1cccn2c(=O)c(/C=C(\C#N)c3nc4ccccc4n3C)c(Oc3ccc(Cl)cc3)nc12,"0.0562 µM [falling, partial curve]"
6,CC1CCN(S(=O)(=O)c2ccc(S(=O)(=O)NCc3ccccc3)cc2)CC1,"31.6 µM [falling, partial curve]"
7,CC(O)CNCc1cccc2ccccc12 (stereo unspecified),"0.251 µM [falling, single point]"
8,CCN1CCN(c2nc(C)c3c(n2)CCCC3=O)CC1,"0.794 µM [rising, single point]"
9,COC(=O)CSc1nnc2c(C)cc3cc4c(cc3n12)OCCO4,"0.0126 µM [rising, full curve, poor fit]"
10,CCC(=O)Nc1cccc(C(=O)/C=C/c2cc(Br)ccc2OC)c1,"0.794 µM [falling, full curve, poor fit]"
11,Cc1cc(NC(=O)CSc2ccc(-c3ccccc3)nn2)no1,"0.0794 µM [falling, single point]"
12,CC(C)(C)c1ccc(OCCN2CCCC2)cc1,"25.1 µM [rising, partial curve]"
13,Clc1cccc(CSc2ncn(-c3ccccc3)n2)c1,"31.6 µM [rising, single point]"
14,CCOC(=O)c1c(NC(=O)c2ccco2)n(C2CCCCC2)c2nc3ccccc3nc12,"7.94 µM [rising, partial curve, poor fit]"
15,CCOC(=O)c1nnn(-c2nonc2N)c1CN(CC)CC,"0.0631 µM [falling, full curve, poor fit]"
16,Fc1ccc(NCc2ccccc2-c2nnc(-c3ccccc3Cl)o2)cc1Cl,"2 µM [falling, full curve, poor fit]"
17,COc1ccc2cc3cc(C(=O)NCCN4CCc5ccccc5C4)oc3nc2c1,"0.126 µM [falling, full curve, poor fit]"
18,O=C1NCCN1C(=O)c1ccccc1F,"0.501 µM [falling, full curve, poor fit]"
19,CCCOc1ccc(C(=O)Nc2ccc(NC(=O)c3ccc(Br)cc3)cc2)cc1,"0.501 µM [falling, full curve, poor fit]"
20,NS(=O)(=O)c1ccc(NS(=O)(=O)c2cccs2)cc1,"10 µM [falling, partial curve, poor fit]"
21,Cc1nc2sc(C(c3ccc(Cl)cc3)N3CCOCC3)c(O)n2n1 (stereo unspecified),"0.158 µM [falling, full curve, poor fit]"
22,CCOc1ccc2nc(Cl)c(C3CC(c4ccccc4)=NN3C(=O)CCC(=O)O)cc2c1 (stereo unspecified),"0.0562 µM [falling, full curve, poor fit]"

# Grouped by structure: those above containing a furan ring, fused or not
row,Structure (SMILES),AC50
14,CCOC(=O)c1c(NC(=O)c2ccco2)n(C2CCCCC2)c2nc3ccccc3nc12,"7.94 µM [rising, partial curve, poor fit]"
17,COc1ccc2cc3cc(C(=O)NCCN4CCc5ccccc5C4)oc3nc2c1,"0.126 µM [falling, full curve, poor fit]"

# Further compounds.

row,Structure (SMILES),AC50
1,CN(C)c1ccc(C=NCCC2(O)CCOC(C)(C)C2)cc1 (stereo unspecified),"5.62 µM [rising, single point]"
2,CCCN(C(=O)c1ccccc1N)c1c(C)n(C)n(-c2ccccc2)c1=O,"0.794 µM [rising, full curve]"
3,CCCCCCC1CC(CSc2ncn[nH]2)OC1=O (stereo unspecified),"1.58 µM [falling, partial curve]"
4,CCC1(C)Cc2c(sc3nc4n(c(=O)c23)CCS4)CO1 (stereo unspecified),"1.41 µM [falling, partial curve, poor fit]"
5,Cc1noc(C)c1S(=O)(=O)N1CCC(C(=O)N(C)Cc2ccccc2)CC1,"3.16 µM [falling, full curve]"
6,COc1cc(NS(=O)(=O)c2ccc(NS(=O)(=O)c3ccccc3)cc2)nc(OC)n1,"0.02 µM [rising, full curve, poor fit]"
7,Cc1ccc(-n2c(C)cc(C(=O)COC(=O)C3=NNC(=O)CC3)c2C)cc1,"12.6 µM [rising, single point]"
8,CCn1c(SCC(=O)NC(C)c2ccccc2)nc2ccccc21 (stereo unspecified),"0.1 µM [falling, full curve, poor fit]"
9,CCC(C)(C)NC(=O)CN(C(=O)CNS(=O)(=O)c1ccccc1)c1ccccc1,"5.01 µM [falling, single point]"
10,CC(OC(=O)c1cc2sccc2n1C)C(=O)NCc1ccc2c(c1)OCO2 (stereo unspecified),"25.1 µM [falling, single point]"
11,CN(C)CCCN1C(=O)C(O)=C(C(=O)c2cc3ccccc3o2)C1c1ccccc1 (stereo unspecified),"15.8 µM [rising, single point]"
12,COCc1cc(C)nc2sc(C(=O)OC(C)C)c(N)c12,"15.8 µM [rising, single point]"
13,Cc1ccn2cc(CCNS(=O)(=O)c3ccc(F)c(C(F)(F)F)c3)nc2c1,"0.158 µM [falling, full curve, poor fit]"
14,CCn1c2ccccc2c2cc(NC(=O)N3CCOCC3)ccc21,"0.282 µM [falling, full curve, poor fit]"
15,Cc1ccc(C)c(N2CCN(Cc3nnc(-c4ccc5c(c4)OCO5)o3)CC2)c1,"5.62 µM [falling, full curve]"
16,COc1ccc(S(=O)(=O)NCCSc2ccc(Cl)cc2)cc1OC,"1 µM [falling, single point]"
17,O=C(CSc1nnc(NC(=O)CN2CCOCC2)s1)Nc1ccccc1,"6.31 µM [falling, single point]"
18,CC(OC(=O)c1snc(C(=O)NC2CCCCC2)c1N)C(=O)NC1CCCCC1 (stereo unspecified),"15.8 µM [falling, single point]"
19,Cc1ccn2c(/C=N/OCc3ccc(F)cc3)c(-c3ccc(Cl)cc3)nc2c1,"2 µM [rising, full curve]"
20,CCOC(=O)CSc1nc2ccccc2n1CC(=O)N(C(C)C)C(C)C,"5.01 µM [rising, full curve, poor fit]"
21,Cc1cccc(Oc2ncnc3onc(C)c23)c1C,"3.16 µM [falling, partial curve, poor fit]"
22,CC(C)(C)n1ncc2c(=O)n(CC(=O)NCc3ccccc3)cnc21,"15.8 µM [falling, single point]"

# As entered above.
# Value of `CCC(C)(C)NC(=O)CN(C(=O)CNS(=O)(=O)c1ccccc1)c1ccccc1` under AC50: 5.01 µM [falling, single point]
# Value of `CCCN(C(=O)c1ccccc1N)c1c(C)n(C)n(-c2ccccc2)c1=O` under AC50: 0.794 µM [rising, full curve]

# Further compounds follow:

row,Structure (SMILES),AC50
1,COc1ccc(S(=O)(=O)NCCCO)cc1-c1nnc2c3ccccc3c(C)nn12,"0.0126 µM [falling, full curve, poor fit]"
2,O=C(Cn1nnc(-c2ccc(Cl)cc2)n1)NC1CCN(Cc2ccccc2)CC1,"0.398 µM [falling, full curve, poor fit]"
3,O=c1oc(-c2ccccc2)nc2ccsc12,"6.31 µM [falling, partial curve, poor fit]"
4,CCOC(=O)c1nc(Nc2ccc(C(C)=O)cc2)c2ccccc2n1,"25.1 µM [rising, single point]"
5,CCOc1ccc(/C(O)=C2/C(=O)C(=O)N(CCOCCO)C2c2cccnc2)cc1 (stereo unspecified),"12.6 µM [rising, partial curve]"
6,CCCCNC(=O)CN1C(=O)C(CC)Oc2ccc(Cl)cc21 (stereo unspecified),"3.16 µM [rising, full curve]"
7,CCn1cc(C(=O)NCc2ccco2)c(=O)c2cc(S(=O)(=O)N3CCc4ccccc4C3)ccc21,"0.158 µM [rising, full curve, poor fit]"
8,CCCC1(c2ccccc2)NC(=O)N(CC(=O)Nc2sc(-c3ccccc3)cc2C(=O)OCC)C1=O (stereo unspecified),"12.6 µM [rising, single point]"
9,COc1cccc(Cn2c(Oc3cc(C)cc(C)c3)nc3c2c(=O)n(C)c(=O)n3C)c1,"31.6 µM [rising, single point]"
10,c1ccc(C(c2ccccc2)c2nc(-c3cccnc3)no2)cc1,"12.6 µM [rising, single point]"
11,CCOc1ccc(NC(=O)CSc2nc3ccccc3c(=O)n2CCCC(=O)N2CCCC2)cc1,"3.16 µM [rising, full curve]"
12,COc1ccc(NC(=O)CCCSc2nc(-c3ccco3)cc(C(F)(F)F)n2)cc1OC,"0.126 µM [rising, partial curve]"
13,COc1cccc(-c2nc(S(=O)(=O)c3ccc(Cl)cc3)c(NCc3ccccc3)o2)c1,"1.41 µM [falling, full curve, poor fit]"
14,CC(=O)c1sc(Nc2ccccn2)nc1C,"12.6 µM [rising, partial curve]"
15,O=c1[nH]c(NCCCO)nc2c1C1(CCCC1)Cc1ccccc1-2,"31.6 µM [rising, single point]"
16,CCn1c(N2CCN(C(=O)NC3CCCCC3)CC2)nc2ccccc21,"31.6 µM [falling, single point]"
17,Cc1cc(C)n(C2=NS(=O)(=O)c3ccccc32)n1,"6.31 µM [rising, single point]"
18,COc1ccccc1NC(=O)C1=C(C)Nc2nc(CCCO)nn2C1c1cccc(O)c1 (stereo unspecified),"11.2 µM [falling, partial curve]"
19,COc1ccc(-c2cc(C)nc3nc(N)nn23)cc1,"0.0631 µM [falling, full curve]"
20,CCCOc1cc(C)nc(-c2ccccc2O)n1,"0.00398 µM [falling, full curve, poor fit]"
21,O=C1CCCc2nn(-c3ccccc3)c(-c3ccncc3)c21,"0.00398 µM [falling, full curve, poor fit]"
22,O=C(NCCCc1ccccc1)Nc1cccc(Cl)c1,"11.2 µM [falling, single point]"
